Test results taken from patent US20140162875A1, “N-Thio-Anthranilamide Compounds and Their Use as Pesticides” (BASF SE, priority 2011, published 2014).
Some entries share one result that the patent states for a list of compounds.

How the values were obtained:
Assay type in all cases: in vivo
[1] = test system: Southern Armyworm (Spodoptera Eridania); assay: Southern armyworm lima bean plant spray test; conditions: 300 ppm; larvae on sprayed lima bean plants; 4 days after treatment
Method: (§1) The active compounds were formulated in cyclohexanone as a 10,000 ppm solution supplied in tubes. The tubes were inserted into an automated electrostatic sprayer equipped with an atomizing nozzle and they served as stock solutions for which lower dilutions were made in 50% acetone:50% water (v/v). A nonionic surfactant (Kinetic®) was included in the solution at a volume of 0.01% (v/v).
(§2) Lima bean plants (variety Sieva) were grown 2 plants to a pot and selected for treatment at the 1st true leaf stage. Test solutions were sprayed onto the foliage by an automated electrostatic plant sprayer equipped with an atomizing spray nozzle. The plants were dried in the sprayer fume hood and then removed from the sprayer. Each pot was placed into perforated plastic bags with a zip closure. About 10 to 11 armyworm larvae were placed into the bag and the bags zipped closed. Test plants were maintained in a growth room at about 25° C. and about 20-40% relative humidity for 4 days, avoiding direct exposure to fluorescent light (24 hour photoperiod) to prevent trapping of heat inside the bags. Mortality and reduced feeding were assessed 4 days after treatment, compared to untreated control plants.

[2] = test system: boll weevil (Anthonomus grandis); assay: Boll weevil microtiter plate insect diet test; conditions: 2500 ppm; egg and larval mortality after 5 days
Method: For evaluating control of boll weevil (Anthonomus grandis) the test unit consisted of 96-well-microtiter plates containing an insect diet and 5-10 A. grandis eggs.
(§3) The compounds were formulated using a solution containing 75% v/v water and 25% v/v DMSO. Different concentrations of formulated compounds were sprayed onto the insect diet at 5 μl, using a custom built micro atomizer, at two replications.
After application, microtiter plates were incubated at about 25±1° C. and about 75±5% relative humidity for 5 days. Egg and larval mortality was then visually assessed.

[3] = test system: Diamond Back Moth (Plutella Xylostella); assay: Diamond back moth cabbage leaf dip test; conditions: 300 ppm; dipped cabbage leaves, 3rd instar larvae; 72 hours after treatment
Method: (§4) The active compound was dissolved at the desired concentration in a mixture of 1:1 (vol:vol) distilled water:acetone. Surfactant (Alkamuls® EL 620) is added at a rate of 0.1% (vol/vol). The test solution was prepared at the day of use.
Leaves of cabbage were dipped in test solution and air-dried. Treated leaves were placed in petri dishes lined with moist filter paper and inoculated with ten 3rd instar larvae. Mortality was recorded 72 hours after treatment. Feeding damages were also recorded using a scale of 0-100%.

[4] = test system: vetch aphid (Megoura viciae); assay: Vetch aphid broad bean leaf disk microtiter test; conditions: 2500 ppm; adult aphids on broad bean leaf disks; 5 days
Method: For evaluating control of vetch aphid (Megoura viciae) through contact or systemic means the test unit consisted of 24-well-microtiter plates containing broad bean leaf disks.
The compounds were formulated using a solution containing 75% v/v water and 25% v/v DMSO. Different concentrations of formulated compounds were sprayed onto the leaf disks at 2.5 μl, using a custom built micro atomizer, at two replications.
After application, the leaf disks were air-dried and 5-8 adult aphids placed on the leaf disks inside the microtiter plate wells. The aphids were then allowed to suck on the treated leaf disks and incubated at about 23±1° C. and about 50±5% relative humidity for 5 days. Aphid mortality and fecundity was then visually assessed.

[5] = test system: Cowpea Aphid (Aphis Craccivora); assay: Cowpea aphid spray test on potted cowpea plants; conditions: 300 ppm; sprayed cowpea plants; assessed after 72 hours
Method: as §4
Potted cowpea plants were colonized with approximately 50-100 aphids of various stages by manually transferring a leaf tissue cut from infested plant 24 hours before application. Plants were sprayed after the pest population has been recorded. Treated plants were maintained on light carts at about 28° C. Percent mortality was assessed after 72 hours.

[6] = test system: Orchid Thrips (Dichromothrips Corbetti); assay: Orchid thrips floral-immersion test; conditions: 300 ppm; adult thrips on dipped orchid flowers; 72 hours after treatment
Method: Dichromothrips corbetti adults used for bioassay are obtained from a colony maintained continuously under laboratory conditions. For testing purposes, the test compound was diluted in a 1:1 mixture of acetone:water (vol:vol), plus 0.01% vol/vol Alkamuls® EL 620 surfactant.
Thrips potency of each compound was evaluated by using a floral-immersion technique. Plastic petri dishes were used as test arenas. All petals of individual, intact orchid flowers are dipped into treatment solution and allowed to dry. Treated flowers were placed into individual petri dishes along with −about 20 adult thrips. The petri dishes were then covered with lids. All test arenas were held under continuous light and a temperature of about 28° C. for duration of the assay. After 3 days, the numbers of live thrips were counted on each flower, and along inner walls of each petri dish. The percent mortality was recorded 72 hours after treatment.

[7] = test system: Mediterranean fruitfly (Ceratitis capitata); assay: Mediterranean fruitfly microtiter plate insect diet test; conditions: 2500 ppm; egg and larval mortality after 5 days
Method: For evaluating control of Mediterranean fruitfly (Ceratitis capitata) the test unit consisted of microtiter plates containing an insect diet and 50-80 C. capitata eggs.
as §3
After application, microtiter plates were incubated at about 28±1° C. and about 80±5% relative humidity for 5 days. Egg and larval mortality was then visually assessed.

[8] = test system: Tobacco Budworm (Heliothis Virescens); assay: Tobacco budworm cotton plant spray test; conditions: 2500 ppm; larvae on sprayed cotton plants; 4 days after treatment
Method: as §1
as §2, with “Cotton” for “Lima bean”, “plants” for “plants (variety Sieva)”, “cotyledon” for “1st true leaf”, “budworm” for “armyworm”

[9] = test system: Colorado Potato Beetle (Leptinotarsa Decemlineata); assay: Colorado potato beetle eggplant foliage spray test; conditions: 300 ppm; beetle larvae on sprayed eggplant foliage; 4 days after treatment
Method: as §1
Eggplants were grown 2 plants to a pot and were selected for treatment at the 1st true leaf stage. Test solutions were sprayed onto the foliage by an automated electrostatic plant sprayer equipped with an atomizing spray nozzle. The plants were dried in the sprayer fume hood and then removed from the sprayer. The treated foliage was then cut and removed from the pot and placed in a Petri dish lined with moistened filter paper. Five beetle larvae were introduced into each Petri dish and the dish was covered by a Petri dish lid. Petri dishes were maintained in a growth room at about 25° C. and about 20-40% relative humidity for 4 days, avoiding direct exposure to fluorescent light (24 hour photoperiod) to prevent trapping of heat inside the dishes. Mortality and reduced feeding were assessed 4 days after treatment, compared to untreated control plants.

Measured: mortality in comparison with untreated controls

Cc1cc(Cl)cc(C(=O)N=S(C(C)C)C(C)C)c1NC(=O)c1cnn(CC(F)(F)F)c1-c1ncccc1Cl [Compound 1-2]
not listed: [9]
at least 75%: all other assays above

CCS(CC)=NC(=O)c1cc(Cl)cc(Cl)c1NC(=O)c1cnn(CC(F)(F)F)c1-c1ncccc1Cl [Compound 1-3]
at least 75%: all assays above

CC(C)S(=NC(=O)c1cc(Cl)cc(Cl)c1NC(=O)c1cnn(CC(F)(F)F)c1-c1ncccc1Cl)C(C)C [Compound 1-4]
at least 75%: all assays above

CCS(CC)=NC(=O)c1cc(Cl)cc(C)c1NC(=O)c1cnn(CC(F)(F)F)c1-c1ncccc1Cl [Compound 1-5]
at least 75%: all assays above

Cc1cc(Cl)cc(C(=O)N=S(C(C)C)C(C)C)c1NC(=O)c1cnn(C)c1-c1ncccc1Cl [Compound 1-6]
not listed: [3] | [6] | [9]
at least 75%: all other assays above

Cc1cc(Cl)cc(C(=O)N=S(C(C)C)C(C)C)c1NC(=O)c1cnn(C(C)C)c1-c1ncccc1Cl [Compound 1-7]
not listed: [3] | [9]
at least 75%: all other assays above

CCS(CC)=NC(=O)c1cc(Cl)cc(C)c1NC(=O)c1cnn(C(C)C)c1-c1ncccc1Cl [Compound 1-8]
not listed: [3] | [9]
at least 75%: all other assays above

CCS(CC)=NC(=O)c1cc(Cl)cc(C)c1NC(=O)c1cnn(C)c1-c1ncccc1Cl [Compound 1-9]
not listed: [1] | [5] | [9]
at least 75%: all other assays above
